Results are given in words; binding and its absence hold for the method and conditions named. Binding seen in cells or lysates may run through a third protein. Some entries that bind do so weakly or less than the wild type.

Chains of the proteins cited; added tags and fusions are not shown.
UniProt P35637: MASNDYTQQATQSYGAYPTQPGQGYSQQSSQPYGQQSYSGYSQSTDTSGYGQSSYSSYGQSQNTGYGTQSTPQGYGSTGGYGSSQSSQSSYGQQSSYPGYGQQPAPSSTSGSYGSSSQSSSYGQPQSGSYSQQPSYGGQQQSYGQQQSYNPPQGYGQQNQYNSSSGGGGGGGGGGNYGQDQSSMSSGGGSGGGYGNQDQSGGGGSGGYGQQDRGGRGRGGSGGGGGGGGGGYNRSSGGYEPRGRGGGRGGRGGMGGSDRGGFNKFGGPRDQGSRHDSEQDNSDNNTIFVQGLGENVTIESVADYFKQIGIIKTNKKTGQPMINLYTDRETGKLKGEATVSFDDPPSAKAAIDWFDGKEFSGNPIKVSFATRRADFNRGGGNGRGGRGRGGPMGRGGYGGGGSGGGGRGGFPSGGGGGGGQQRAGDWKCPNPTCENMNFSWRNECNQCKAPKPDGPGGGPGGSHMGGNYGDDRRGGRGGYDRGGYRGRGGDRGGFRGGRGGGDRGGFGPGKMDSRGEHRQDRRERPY

The record followed here is publication PMC5059712.

The target in the assay is FUS, endogenous in HEK293 (human (endogenous in HEK293)) (UniProt P35637). Briefly: co-IP; HEK293 lysates after sonication (sheared chromatin), immunoprecipitated with anti-FUS antibody or control IgG, Western blot for the endogenous partners; FUS-SAFB1 also tested with RNase treatment of the immune complexes. For orientation: In western blotting, separated proteins are transferred to a membrane and probed.

B1: Matrin3, endogenous in HEK293 (protein, UniProt P43243 1-847)
chain: MSKSFQQSSLSRDSQGHGRDLSAAGIGLLAAATQSLSMPASLGRMNQGTARLASLMNLGMSSSLNQQGAHSALSSASTSSHNLQSIFNIGSRGPLPLSSQHRGDADQASNILASFGLSARDLDELSRYPEDKITPENLPQILLQLKRRRTEEGPTLSYGRDGRSATREPPYRVPRDDWEEKRHFRRDSFDDRGPSLNPVLDYDHGSRSQESGYYDRMDYEDDRLRDGERCRDDSFFGETSHNYHKFDSEYERMGRGPGPLQERSLFEKKRGAPPSSNIEDFHGLLPKGYPHLCSICDLPVHSNKEWSQHINGASHSRRCQLLLEIYPEWNPDNDTGHTMGDPFMLQQSTNPAPGILGPPPPSFHLGGPAVGPRGNLGAGNGNLQGPRHMQKGRVETSRVVHIMDFQRGKNLRYQLLQLVEPFGVISNHLILNKINEAFIEMATTEDAQAAVDYYTTTPALVFGKPVRVHLSQKYKRIKKPEGKPDQKFDQKQELGRVIHLSNLPHSGYSDSAVLKLAEPYGKIKNYILMRMKSQAFIEMETREDAMAMVDHCLKKALWFQGRCVKVDLSEKYKKLVLRIPNRGIDLLKKDKSRKRSYSPDGKESPSDKKSKTDGSQKTESSTEGKEQEEKSGEDGEKDTKDDQTEQEPNMLLESEDELLVDEEEAAALLESGSSVGDETDLANLGDVASDGKKEPSDKAVKKDGSASAAAKKKLKKVDKIEELDQENEAALENGIKNEENTEPGAESSENADDPNKDTSENADGQSDENKDDYTIPDEYRIGPYQPNVPVGIDYVIPKTGFYCKLCSLFYTNEEVAKNTHCSSLPHYQKLKKFLNKLAEERRQKKET
For the molecule B1, the binding entry is given as “binds”.
